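Vaccinia-infected cells with a two-color viral stage reporter; Venus fluorescence read on a plate reader; the cell line is not named here; timing not stated here.
The test concentration is not given here.
Percent change in Venus reporter signal; lower (more negative) values mean stronger inhibition of that viral stage.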

Values are in %.
How 0% and 100% were set is not given here.
Common to all entries: measured here: Venus reporter, other viral stage.
This is a side read-out of the assay, for part of the compounds, not drawn at random.

SMILES	activity change (Venus) (%)
CC(C)CC#Cc1ccc([C@@H]2[C@H](CO)N3CCCCN(C(=O)Nc4ccccc4)C[C@@H]23)cc1	-88.96
C[C@H]1CN([C@@H](C)CO)C(=O)Cc2cc(NS(=O)(=O)c3ccccc3)ccc2O[C@@H]1CN(C)CC1CCCCC1	35.12
C[C@H]1CN([C@@H](C)CO)C(=O)c2cc(C#CC3CCCCC3)cnc2O[C@H]1CN(C)CC1CC1	-46.18
O=C1CN(S(=O)(=O)Cc2ccccc2)C[C@@H]2[C@@H](c3ccc(C#CCC4CCCC4)cc3)[C@@H](CO)N12	-70.21
CO[C@H]1O[C@H](CO)[C@@H](OC(=O)Nc2ccccc2)[C@H](OC(=O)Nc2ccccc2)[C@H]1OC(=O)Nc1ccccc1	-63.13
COc1ccc2c3c(n(C)c2c1)[C@H](CO)N(CC1CC1)CC31CCN(Cc2ccc(F)cc2)CC1	-28.88
C[C@H]1CN([C@@H](C)CO)S(=O)(=O)c2ccc(Br)cc2O[C@@H]1CN(C)S(=O)(=O)c1ccccc1	-29.03
Cc1ccc(S(=O)(=O)N(C)C[C@@H]2Oc3ccc(NC(=O)Cc4cn(C)c5ccccc45)cc3CC(=O)N([C@@H](C)CO)C[C@@H]2C)cc1	-24.25
COc1ccc(NC(=O)N(C)C[C@H]2OCc3ccccc3-c3c(n(C)c4ccccc34)C(=O)N([C@@H](C)CO)C[C@H]2C)c(OC)c1	-50.18
CO[C@@H]1CN(C)C(=O)c2ccc(NC(=O)c3ccc(Oc4ccccc4)cc3)cc2OC[C@@H](C)NC[C@H]1C	-59.91
CC(C)NC(=O)N(C)C[C@H]1Oc2cc(C#Cc3cccc(F)c3)ccc2S(=O)(=O)N([C@@H](C)CO)C[C@H]1C	-35.82
C[C@@H]1CN([C@H](C)CO)C(=O)c2cc(NC(=O)Nc3ccc(C(F)(F)F)cc3)ccc2O[C@H]1CN(C)Cc1ccc(-c2ccccc2)cc1	-32.56
C[C@@H]1CCCCO[C@H](CN(C)C(=O)C2CCCCC2)[C@@H](C)CN([C@@H](C)CO)C(=O)c2cc(NC(=O)Nc3ccc(C(F)(F)F)cc3)ccc2O1	-15.2
C[C@@H]1CN([C@H](C)CO)C(=O)c2cc(NC(=O)Cc3cn(C)c4ccccc34)ccc2O[C@@H]1CN(C)CC1CCCCC1	-41.09
CC(C)NC(=O)Nc1ccc2c(c1)CC(=O)N([C@@H](C)CO)C[C@@H](C)[C@@H](CN(C)Cc1ccc(Cl)c(Cl)c1)O2	-33.7
O=C(c1ccccc1F)N1CC(=O)N2[C@H](C1)[C@@H](c1ccc(C#Cc3ccccc3)cc1)[C@@H]2CO	-65.93
C/C=C/c1ccc2c(c1)O[C@H](CN(C)Cc1ccccc1F)[C@H](C)CN([C@H](C)CO)S2(=O)=O	-64.13
COCC(=O)N1CC2(CCN(Cc3ccc(Cl)cc3)CC2)c2c([nH]c3cc(OC)ccc23)[C@H]1CO	-43.34
O=C(Nc1ccccc1F)N1C[C@@H]2N[C@H](C1)C2c1ccc(-c2cccc(F)c2)cc1 (some centres not stated)	-58.11
C[C@@H]1CN([C@@H](C)CO)C(=O)c2c(c3ccccc3n2C)-c2ccccc2CO[C@@H]1CN(C)Cc1cccc(F)c1	-51.16
C[C@H](CO)N1C[C@H](C)[C@H](CN(C)S(=O)(=O)c2cccc(F)c2)Oc2ncc(-c3cc4ccccc4o3)cc2C1=O	-25.92
C=CC[C@]12N=C(c3ccc(OCCCO)cc3)O[C@H]1c1ccccc1CN(Cc1ccccc1)C2=O	-26.83
O=C(C[C@H]1C[C@@H]2c3cc(NC(=O)Nc4ccccc4F)ccc3O[C@@H]2[C@@H](CO)O1)NCc1cc(F)ccc1F	-40.51
O=C(c1cccnc1)N1CC(=O)N2[C@@H](CO)[C@@H](c3ccc(/C=C/c4ccccc4)cc3)[C@@H]2C1	-61.56
O=C(Nc1cc(F)ccc1F)N1CC(=O)N2[C@H](CO)[C@@H](c3ccc(-c4cccnc4)cc3)[C@H]2C1	-29.32
O=C(Cc1ccccc1)N1CC[C@@H]2[C@@H](CO)Nc3ccc(-c4cccc(F)c4)cc3[C@@H]21	-35.98
COc1ccccc1C#Cc1ccc2c(c1)[C@@H]1[C@@H](CCN1C(=O)c1ccncc1)[C@H](CO)N2	-22.78
C[C@@H]1CN([C@H](C)CO)S(=O)(=O)c2ccc(/C=C/c3ccccc3)cc2O[C@H]1CN(C)C(=O)NC1CCCC1	-51.09
CC(C)(C)[S@@](=O)N1Cc2cc(C(=O)N3CCc4ccccc4C3)nc(-c3cccc(-c4ccncc4)c3)c2[C@H]1CCO	-12.01
COc1ccc(C#Cc2ccc3c(c2)O[C@H](CN(C)C(=O)NC2CCCCC2)[C@@H](C)CN([C@@H](C)CO)S3(=O)=O)cc1	-18.07
Cc1ccc(S(=O)(=O)Nc2ccc3c(c2)C(=O)N([C@H](C)CO)C[C@H](C)[C@H](CN(C)Cc2ccc(Cl)c(Cl)c2)OCCCC[C@H](C)O3)cc1	-38.98
O=S(=O)(c1cccc(F)c1)N1CC[C@@H]2[C@H](CO)Nc3ccc(Br)cc3[C@@H]21	-22.46
C[C@@H]1CCCCO[C@@H](CN(C)C)[C@H](C)CN([C@@H](C)CO)C(=O)c2cc(NC(=O)Nc3ccc(C(F)(F)F)cc3)ccc2O1	-31.78
C[C@H]1CN([C@@H](C)CO)C(=O)Cc2cc(NS(=O)(=O)c3ccccc3)ccc2O[C@H]1CN(C)Cc1ccc(Oc2ccccc2)cc1	-34.4
Cc1ccc(S(=O)(=O)N[C@H]2CC[C@@H](CCNS(=O)(=O)Cc3ccccc3)O[C@@H]2CO)cc1	-20.62
C[C@@H]1CCCCO[C@H](CN(C)C(=O)Nc2ccc(F)cc2)[C@@H](C)CN([C@@H](C)CO)C(=O)c2cc(NC(=O)c3ccccc3)ccc2O1	-22.22
C[C@H](CO)N1C[C@H](C)[C@H](CN(C)Cc2ccc(C(F)(F)F)cc2)OCCCC[C@H](C)Oc2ccc(NS(=O)(=O)c3ccc(F)cc3)cc2C1=O	-82.49
Cc1ccc(S(=O)(=O)N[C@H]2CC[C@@H](CCn3cc(C4CCCC4)nn3)O[C@@H]2CO)cc1	-18.84
C[C@@H]1CCCCO[C@H](CN(C)Cc2ccccc2)[C@H](C)CN([C@@H](C)CO)C(=O)c2cc(NC(=O)Nc3ccccc3)ccc2O1	-65.78
COc1ccc(S(=O)(=O)N(C)C[C@@H]2OCCCC[C@H](C)Oc3ccc(NS(=O)(=O)c4ccccc4)cc3C(=O)N([C@H](C)CO)C[C@H]2C)cc1	-37.16
O=C(NC1CCCCC1)N1CC(=O)N2[C@H](CO)[C@@H](c3ccc(-c4ccccc4)cc3)[C@H]2C1	-43.35
C[C@@H]1CN([C@@H](C)CO)C(=O)c2cc(C#Cc3ccc(F)cc3)cnc2O[C@H]1CN(C)Cc1ccccn1	-33.14
N#Cc1cccc(-c2ccc(C3[C@@H]4CN(C(=O)C5CC5)C[C@H]3N4)cc2)c1 (some centres not stated)	-90.14
Cc1ccc(S(=O)(=O)Nc2ccc3c(c2)C(=O)N([C@H](C)CO)C[C@@H](C)[C@@H](CN(C)Cc2ccc4c(c2)OCO4)OCCCC[C@@H](C)O3)cc1	-69.7
C[C@@H]1CN([C@@H](C)CO)S(=O)(=O)c2ccc(/C=C/c3ccccc3)cc2O[C@H]1CN(C)Cc1ccccc1	-45.04
CC(C)CC#Cc1ccc2c(c1)O[C@@H](CN(C)C(=O)CC1CC1)[C@@H](C)CN([C@H](C)CO)S2(=O)=O	-20.23
C[C@@H]1CN([C@@H](C)CO)C(=O)Cc2cc(N(C)C)ccc2O[C@@H]1CN(C)Cc1ccc(C(=O)Nc2ccccc2N)cc1	-68.48
O=C1CN(S(=O)(=O)Cc2ccccc2)C[C@@H]2[C@@H](c3ccc(C#CC4CC4)cc3)[C@@H](CO)N12	-62.8
C[C@H](CO)N1C[C@H](C)[C@H](CN(C)Cc2ccc(Oc3ccccc3)cc2)Oc2c(NC(=O)c3ccc(-c4nccs4)cc3)cccc2C1=O	-46.42
O=C(Cc1ccccc1)N1CC(=O)N2[C@H](C1)[C@@H](c1ccc(-c3ccccc3)cc1)[C@@H]2CO	-38.71
CO[C@H]1CN(C)C(=O)c2ccc(NC(=O)c3nc4ccccc4s3)cc2OC[C@H](C)N(Cc2ccncc2)C[C@@H]1C	-32.93
O=C(C[C@@H]1CC[C@@H](NS(=O)(=O)c2ccc(F)cc2)[C@H](CO)O1)N1CCC(Cc2ccccc2)CC1	-23.85
COc1ccccc1NC(=O)N1CCCCN2[C@H](CO)[C@@H](c3ccc(-c4cccc(C)c4)cc3)[C@@H]2C1	-53.99
O=C(C[C@H]1CC[C@H](NS(=O)(=O)c2ccc(F)cc2)[C@@H](CO)O1)N1CCC(Cc2ccccc2)CC1	-32.7

The results are deposited in PubChem (AID1053133; Broad Institute, 2014).